Measured values as given in paper PMC12767118.
Numbering of substitutions follows the chain as printed. In names and notes the source's numbering stands. Results are given in words; binding and its absence hold for the method and conditions named. In cells and extracts the contact can be indirect. Some entries that bind do so weakly or less than the wild type. For some of these results: Tags and fused reporters may be left off the sequences shown.

Amino acid sequences for entries named in this document (tags omitted).
UniProt O60488: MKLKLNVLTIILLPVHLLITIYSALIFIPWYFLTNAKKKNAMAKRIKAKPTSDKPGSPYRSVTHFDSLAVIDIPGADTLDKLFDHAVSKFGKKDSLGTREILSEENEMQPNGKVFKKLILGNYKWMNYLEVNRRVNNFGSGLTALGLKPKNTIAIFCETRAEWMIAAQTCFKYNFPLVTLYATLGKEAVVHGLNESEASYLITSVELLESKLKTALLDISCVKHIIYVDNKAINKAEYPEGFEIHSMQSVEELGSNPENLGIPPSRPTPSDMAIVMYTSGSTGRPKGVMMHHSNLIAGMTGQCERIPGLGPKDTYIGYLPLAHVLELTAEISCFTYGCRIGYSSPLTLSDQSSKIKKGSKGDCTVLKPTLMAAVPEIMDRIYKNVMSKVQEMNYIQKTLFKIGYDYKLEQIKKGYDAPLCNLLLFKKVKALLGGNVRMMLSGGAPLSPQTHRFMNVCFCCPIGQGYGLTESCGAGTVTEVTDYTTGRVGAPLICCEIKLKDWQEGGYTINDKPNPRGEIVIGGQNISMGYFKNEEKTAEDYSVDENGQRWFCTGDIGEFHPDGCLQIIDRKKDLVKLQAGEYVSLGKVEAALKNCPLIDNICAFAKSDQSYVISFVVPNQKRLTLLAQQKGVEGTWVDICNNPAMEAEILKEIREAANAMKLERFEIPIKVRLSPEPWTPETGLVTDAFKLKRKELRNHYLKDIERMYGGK
UniProt Q9UIJ5: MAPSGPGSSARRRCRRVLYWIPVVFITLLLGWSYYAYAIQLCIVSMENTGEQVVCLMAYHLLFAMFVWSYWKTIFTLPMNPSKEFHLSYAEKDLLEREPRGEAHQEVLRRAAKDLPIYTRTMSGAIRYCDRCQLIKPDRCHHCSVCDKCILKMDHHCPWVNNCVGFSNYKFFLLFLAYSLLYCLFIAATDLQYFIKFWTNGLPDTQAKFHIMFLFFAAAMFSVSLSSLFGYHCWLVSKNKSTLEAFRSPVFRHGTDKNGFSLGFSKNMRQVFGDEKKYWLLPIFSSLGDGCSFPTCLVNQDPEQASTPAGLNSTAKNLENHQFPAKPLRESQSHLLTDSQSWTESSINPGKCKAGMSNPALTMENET

Columns and labels:
[1] = biological target: ACSL4, endogenous (human (endogenous in C4‐2, 22Rv1 and LNCaP)) (UniProt O60488); test: proximity ligation; Duolink in situ PLA in fixed and permeabilised 22Rv1 cells with the indicated antibodies; for USP19-ACSL4 also after ZDHHC2 knockdown
[2] = biological target: palmitoyltransferase ZDHHC2, endogenous (human (endogenous in C4‐2, 22Rv1 and LNCaP)) (UniProt Q9UIJ5); test: as above
[3] = biological target: ACSL4, endogenous (human (endogenous in C4‐2, 22Rv1 and LNCaP)) (UniProt O60488); test: co-IP; endogenous proteins; C4‐2, 22Rv1 and LNCaP lysates in RIPA buffer, specific antibodies and magnetic beads overnight at 4 °C, six washes, Western blot; for USP19-ACSL4 also in ZDHHC2-KO cells transfected with ZDHHC2 plasmids, with TTZ1 and MG132, and in enzalutamide-resistant versus -sensitive lines
[4] = biological target: palmitoyltransferase ZDHHC2, endogenous (human (endogenous in C4‐2, 22Rv1 and LNCaP)) (UniProt Q9UIJ5); test: as above
[5] = biological target: recombinant ACSL4 (GST pull‐down assay) (UniProt O60488); test: pull-down; GST fusion protein (E. coli BL21, pET‐GST) captured overnight at 4 °C on glutathione–agarose beads, then mixed with cell lysate of the target protein overnight at 4 °C; SDS-PAGE; only the target purified
[6] = biological target: recombinant full‐length ZDHHC2 (GST pull‐down assays) (UniProt Q9UIJ5); test: as above
[7] = biological target: ACSL4, endogenous (human (endogenous in C4‐2, 22Rv1 and LNCaP)) (UniProt O60488); test: co-IP; C4‐2, 22Rv1 and LNCaP cells transfected with the indicated plasmids (USP19 C152S, ZDHHC2) for 24 h, treated with MG132; co-IP and Western blot

B1: ubiquitin carboxyl‐terminal hydrolase 19 (USP19), endogenous (enzyme, UniProt O94966 1-1318)
chain: MSGGASATGPRRGPPGLEDTTSKKKQKDRANQESKDGDPRKETGSRYVAQAGLEPLASGDPSASASHAAGITGSRHRTRLFFPSSSGSASTPQEEQTKEGACEDPHDLLATPTPELLLDWRQSAEEVIVKLRVGVGPLQLEDVDAAFTDTDCVVRFAGGQQWGGVFYAEIKSSCAKVQTRKGSLLHLTLPKKVPMLTWPSLLVEADEQLCIPPLNSQTCLLGSEENLAPLAGEKAVPPGNDPVSPAMVRSRNPGKDDCAKEEMAVAADAATLVDEPESMVNLAFVKNDSYEKGPDSVVVHVYVKEICRDTSRVLFREQDFTLIFQTRDGNFLRLHPGCGPHTTFRWQVKLRNLIEPEQCTFCFTASRIDICLRKRQSQRWGGLEAPAARVGGAKVAVPTGPTPLDSTPPGGAPHPLTGQEEARAVEKDKSKARSEDTGLDSVATRTPMEHVTPKPETHLASPKPTCMVPPMPHSPVSGDSVEEEEEEEKKVCLPGFTGLVNLGNTCFMNSVIQSLSNTRELRDFFHDRSFEAEINYNNPLGTGGRLAIGFAVLLRALWKGTHHAFQPSKLKAIVASKASQFTGYAQHDAQEFMAFLLDGLHEDLNRIQNKPYTETVDSDGRPDEVVAEEAWQRHKMRNDSFIVDLFQGQYKSKLVCPVCAKVSITFDPFLYLPVPLPQKQKVLPVFYFAREPHSKPIKFLVSVSKENSTASEVLDSLSQSVHVKPENLRLAEVIKNRFHRVFLPSHSLDTVSPSDTLLCFELLSSELAKERVVVLEVQQRPQVPSVPISKCAACQRKQQSEDEKLKRCTRCYRVGYCNQLCQKTHWPDHKGLCRPENIGYPFLVSVPASRLTYARLAQLLEGYARYSVSVFQPPFQPGRMALESQSPGCTTLLSTGSLEAGDSERDPIQPPELQLVTPMAEGDTGLPRVWAAPDRGPVPSTSGISSEMLASGPIEVGSLPAGERVSRPEAAVPGYQHPSEAMNAHTPQFFIYKIDSSNREQRLEDKGDTPLELGDDCSLALVWRNNERLQEFVLVASKELECAEDPGSAGEAARAGHFTLDQCLNLFTRPEVLAPEEAWYCPQCKQHREASKQLLLWRLPNVLIVQLKRFSFRSFIWRDKINDLVEFPVRNLDLSKFCIGQKEEQLPSYDLYAVINHYGGMIGGHYTACARLPNDRSSQRSDVGWRLFDDSTVTTVDESQVVTRYAYVLFYRRRNSPVERPPRAGHSEHHPDLGPAAEAAASQASRIWQELEAEEEPVPEGSGPLGPWGPQDWVGPLPRGPTTPDEGCLRYFVLGTVAALVALVLNVFYPLVSQSRWR
B1 was tested, and the binding [1] was “binds”, the binding [2] was “binds” and the binding [3] was “binds”. The binding [4] was “binds”.

B2: recombinant USP19 (GST pull‐down assays) (enzyme, UniProt O94966 1-1318)
chain: B1 chain
B2 was tested, and the binding [5] was “binds” and the binding [6] was “binds”.

B3: HA‐USP19 C152S (enzyme, UniProt O94966 1-1318)
chain: B1 chain with C152S
In the case of B3, the binding [7] is reported as “binds”.
